Assay: general procedure: solution-phase peptide synthesis; DCC/HOBt; HBTU/HOBt/DIPEA; TBTU/HOBt/DIPEA
Conditions: TFA salts for intermediates, Azaline B as free base; for crude yield: whole synthesis

Ac-D-2-Nal-D-p-Cal-D-3-Pal-Ser-OH
step yield (late stage modification step): 75.7%

Ac-D-NAL-D-pCal-D-3-PAL-Ser-OBn
step yield (coupling step): 92.6%

Ac-p-D-2NAL-p-D-Cal-D-3PAL-Ser-Aph(Atz)-D-Aph(Atz)-Leu-Lys(ε-iPr)-Pro-D-Ala-NH2
step yield (late stage modification step): 86.2%

Aph(Atz)-D-Aph(Atz)-Leu-Lys(Z,iPr)-Pro-D-AlaNH2 x3TFA
step yield (late stage modification step): 98%

Boc-Aph(Atz)-D-Aph(Atz)-Leu-Lys(ε-Z, ε-iPr)-Pro-D-Ala-NH2
step yield (coupling step): 89%

Boc-Leu-Lys(iPr,Z)-Pro-D-Ala-NH2
crude yield: 87%

TFA-Leu-Lys(iPr,Z)-Pro-D-Ala-NH2
crude yield: 86.5%
